Values from PubChem BioAssay AID504784 (Drosophila RNAi Screening Center, 2011)

Aim: 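Genome-wide knock-down for genes giving too much or too little stored lipid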 (primary screen)
Cells: Drosophila Kc167 embryonic cells
Reagent: long dsRNA against Drosophila genes, about 250 ng dsRNA per well
Time to read-out: 4 days
Treatment: cells fed 400 µM oleic acid bound to BSA
Measured: 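Microscope images give a droplet-to-nucleus area ratio, taken as log and converted to a screen-wide B-score; higher values mean greater lipid storage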
Scale: droplet/nuclear area B-score: higher = more stored lipid (overstorage)
In all, the deposit lists about 17,000 reagents; below is an unselected part of those with a known target gene and a result. 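Each column is one replicate's B-score; the combined score over replicates was not deposited, so single values may mislead.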 Reagents against one gene are numbered here. Not all columns of the deposit are shown. No sequences are given here.

The opening 2 records, ahead of the listing:
CG33769: droplet/nuclear area B-score, replicate 1 = -0.75
Ir51b: droplet/nuclear area B-score, replicate 1 = 0.0471

The list itself, repeating the preview:
CG33769: droplet/nuclear area B-score, replicate 1 = -0.75
Ir51b: droplet/nuclear area B-score, replicate 1 = 0.0471
Spn85F: droplet/nuclear area B-score, replicate 1 = 0.0973
RabX4: droplet/nuclear area B-score, replicate 1 = 1.83
RhoGAP19D #1: droplet/nuclear area B-score, replicate 1 = 2.03
RhoGAP19D #2: droplet/nuclear area B-score, replicate 1 = 0.403
Ir40a #1: droplet/nuclear area B-score, replicate 1 = -0.525
Ir40a #2: droplet/nuclear area B-score, replicate 1 = 0.0297
CG31664: droplet/nuclear area B-score, replicate 1 = -0.434
RpL22 #1: droplet/nuclear area B-score, replicate 1 = -0.043
RpL22 #2: droplet/nuclear area B-score, replicate 1 = 2.56
eIF2Balpha: droplet/nuclear area B-score, replicate 1 = 0.404
nsr #1: droplet/nuclear area B-score, replicate 1 = -0.00476
nsr #2: droplet/nuclear area B-score, replicate 1 = -0.219
FucTA: droplet/nuclear area B-score, replicate 1 = 0.66
Mtr3: droplet/nuclear area B-score, replicate 1 = -1.2
gus #1: droplet/nuclear area B-score, replicate 1 = -0.311
gus #2: droplet/nuclear area B-score, replicate 1 = 0.301
ana: droplet/nuclear area B-score, replicate 1 = -0.479
CG15225 #1: droplet/nuclear area B-score, replicate 1 = -0.67
CG15225 #2: droplet/nuclear area B-score, replicate 1 = 0.0224
LUBEL: droplet/nuclear area B-score, replicate 1 = 0.421
c11.1: droplet/nuclear area B-score, replicate 1 = -0.118
Drep2: droplet/nuclear area B-score, replicate 1 = 1.73
CG14950 (retired record): droplet/nuclear area B-score, replicate 1 = -0.15
bab2 #1: droplet/nuclear area B-score, replicate 1 = 1.27
bab2 #2: droplet/nuclear area B-score, replicate 1 = 0.14
CG14244: droplet/nuclear area B-score, replicate 1 = 0.8
CG34041: droplet/nuclear area B-score, replicate 1 = 1.26
Gip: droplet/nuclear area B-score, replicate 1 = -0.693
PIG-G: droplet/nuclear area B-score, replicate 1 = -1.42
CG3546: droplet/nuclear area B-score, replicate 1 = -1.6
Opbp: droplet/nuclear area B-score, replicate 1 = -0.286
CG2186: droplet/nuclear area B-score, replicate 1 = 1.71
pont: droplet/nuclear area B-score, replicate 1 = 1.86
fne #1: droplet/nuclear area B-score, replicate 1 = 0.797
fne #2: droplet/nuclear area B-score, replicate 1 = -1.09
CG1663 #1: droplet/nuclear area B-score, replicate 1 = -1.08
CG1663 #2: droplet/nuclear area B-score, replicate 1 = 0.331
Dhc62B: droplet/nuclear area B-score, replicate 1 = 0.304
